# The list shows a part of the results, in another mix than the full data. Active and inactive are the calls of the source. Calls follow the shape of the dose curve; as a rule, active = well fitted activation curve with a large enough effect; inconclusive = small, poorly fitted or top-dose-only effect; inactive = flat fitted curve, though single readings scatter.
# Assay: qHTS of Nrf2 Activators; also: nearly all actives have a fitted effect of over 65% in size
# Conditions: AREc32 ARE-luciferase reporter (MCF7-derived line), luminescence, 24 h
# Source text: Many diseases have some form of oxidative stress injury and ties to inflammation, causing a host of problems for the patient. The antioxidant response element (ARE) plays an important role in alleviating the harmful effects of oxidative stress. The antioxidant response element (ARE) is a transcriptional regulatory element involved in the activation of genes coding for a number of antioxidant proteins and detoxifying enzymes. These enzymes work in concert to protect tissues from oxidative insults and chemical toxicities in human hepatocytes and immune cells. The protective effects of ARE activation are primarily triggered through Nrf2 (NF-E2-related factor) binding to and activating AREs. It is known that Nrf2 controls the production of over 250 antioxidant and detoxification proteins (Hu et al., 2006), thereby protecting tissues by increasing cellular antioxidant content and suppressing inflammatory signaling pathways. The transcription factor Nrf2 is a central link between oxidative chemicals, such as phenolic antioxidants and electrophilic compounds, and the activation of ARE. […]
# 5 uL of 1000 cells/well of AREc32_Fluc cells are seeded into 1536-well plate in OPTI-MEM medium with 5% FBS. […] After the addition of 2.5 uL of Steady-Glo. the plates are kept at RT for 30 min, before they are read on the ViewLux.
# Potency is read from the fitted curve at half-maximal effect.
row,Compound,Potency
1,O=c1ccc2ccc(OCc3ccccc3)cc2o1,active: 12.6 µM

# Source: PubChem BioAssay AID624171 (National Center for Advancing Translational Sciences (NCATS), 2012)
